# Test results from PubChem BioAssay AID1347076 (National Center for Advancing Translational Sciences (NCATS), 2019).
# About 13,000 (3.2%) of roughly 400,000 compounds were called active. Inconclusive means that the source gave no clear call. Such entries were picked first, then a sample of the others. Calls follow the shape of the dose curve; as a rule, active = well fitted cell-killing curve with a large enough effect; inconclusive = small, poorly fitted or top-dose-only effect, or effect the other way; inactive = flat fitted curve, though single readings scatter. Where the call is inconclusive, the potency comes from a doubtful curve fit.
# Assay: qHTS assay for MDR1-selective chemotherapeutics: Primary screen using the drug-selected MDR subline cells KB-V1; also: nearly all actives have a fitted effect of over 60% in size
# Details: KB-V1 MDR cells viability, CellTiter-Glo, 72 h; activity change, negative = cytotoxicity: at 46.1 µM (top of the series)
# Summary of the method: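 Following 72 h at 37 degrees C with compound, KB-V1 cell viability was read by CellTiter-Glo luminescence, medium being phenol-red-free DMEM plus 10% FBS; concentration-response parameters came from normalized, curve-fitted qHTS data.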
# % is scaled to controls: 0 for no effect and ±100 for the full control effect; potency is read from the fitted curve at half-maximal effect.
Compound,"activity change, negative = cytotoxicity",Potency
COc1cc(NC(=O)c2n[nH]c(=O)c3ccccc23)cc(OC)c1,inactive: -19%,
COc1cccc(CNc2nc3cc(-c4cscc4C)sc3c(=O)n2C)c1,,"inconclusive: 20.6 µM [cytotoxic, single point]"
CC1CC(C)CN(C(=O)C(C)N2CCN(S(=O)(=O)c3ccc(Br)s3)CC2)C1 (stereo unspecified),inactive: -14.9%,
COCC(C)NS(=O)(=O)c1ccc(NC(=O)c2ccccn2)cc1 (stereo unspecified),,"inconclusive: 20.6 µM [cytotoxic, single point]"
CCOC(=O)C(C)On1c(-c2cccc(Cl)c2)nc2ccc([N+](=O)[O-])cc21 (stereo unspecified),,"inconclusive: 20.6 µM [cytotoxic, single point]"
COc1ccc(NC(=O)c2cc3c(s2)CCC(C)C3)cc1S(=O)(=O)N1CCOCC1 (stereo unspecified),,active: 3.66 µM
Nc1nnnn1/N=C/c1cccc(OCc2ccccc2Cl)c1,,"inconclusive: 14.6 µM [cytotoxic, partial curve, poor fit]"
Cc1ccc(-c2cc(C(=O)NCc3cccnc3)no2)cc1,,active: 16.4 µM
COc1ccc(-c2nc(N)nc(C(F)(F)F)c2-c2cscn2)c(O)c1,inactive: 9.85%,
Cc1noc(C)c1C(=O)Nc1nc(-c2ccc(F)c(F)c2)cs1,,active: 20.6 µM
COc1ccc(CCNC(=S)N2CCC(C(=O)c3ccc(F)cc3)CC2)cc1OC,,active: 4.11 µM
CCOC(=O)c1ccc2c(c1)N(Cc1ccc(F)cc1Cl)C(=O)c1ccccc1S2(=O)=O,inactive: -17.9%,
Cc1ccc(-c2cc(C(=O)N3CCOCC3)c3ccccc3n2)o1,inactive: -1.37%,
N#CCCN(C(=O)Nc1ccc(Cl)cc1)c1ccccc1,,"inconclusive: 3.66 µM [rising, full curve]"
CC(O)[C@H]1CN=C(N)N1CCCCC1CCCCC1 (stereo partly specified),,"inconclusive: 6.51 µM [rising, full curve, poor fit]"
COc1ccccc1NC(=O)CC(=O)CSc1nnc(-c2ccc(C)cc2)n1C,,"inconclusive: 29.1 µM [cytotoxic, single point]"
COc1ccc(-c2cc(-c3nnc(-c4ccncc4)o3)c3ccccc3n2)cc1,,"inconclusive: 9.2 µM [cytotoxic, partial curve, poor fit]"
O=C(CN1CCCCCC1)Nc1ccc(Br)cc1,,"inconclusive: 29.1 µM [cytotoxic, single point]"
CCN(CC)CC#CCC(O)(c1ccccc1)c1ccc(Br)cc1 (stereo unspecified),,"inconclusive: 8.2 µM [cytotoxic, partial curve]"
O=C(C1CCCN(S(=O)(=O)c2ccc(Br)s2)C1)N1CCN(c2ccccc2F)CC1 (stereo unspecified),,"inconclusive: 0.517 µM [cytotoxic, full curve]"
COc1ccc(C2=NOC(Cn3nc(-c4ccccc4)cc3C(=O)NCc3ccco3)C2)cc1 (stereo unspecified),,"inconclusive: 18.4 µM [rising, partial curve, poor fit]"
CCOc1cc(/C=N/NC(=O)C(=O)NC)cc(Br)c1O,inactive: -0.319%,
COc1ccc(C(=O)N2CCCCC2c2cc(C(=O)Nc3ccccc3)no2)cc1 (stereo unspecified),inactive: -4.79%,

Compound,"activity change, negative = cytotoxicity",Potency
O=C(Nc1ccccc1)c1ccc(S(=O)(=O)NCC2CCCO2)cc1 (stereo unspecified),,"inconclusive: 20.6 µM [cytotoxic, single point]"
CC(C)=CCC[C@H](C)CC1Cc2[nH]c(=S)[nH]c(=O)c2C(c2ccc(Cl)cc2)O1 (stereo partly specified),,"inconclusive: 2.06 µM [cytotoxic, full curve, poor fit]"
COc1cccc(CN2CCN(c3cccc(C(F)(F)F)c3)CC2)c1OC,,active: 20.6 µM
CCc1ccc(NC(=O)[C@@H](NC(=O)[C@@H]2Cc3ccccc3CN2)C(C)CC)cc1 (stereo partly specified),,"inconclusive: 23.1 µM [rising, partial curve]"
Cn1nnnc1SCCNCc1ccccc1OCc1ccccc1Cl,,"inconclusive: 3.26 µM [cytotoxic, full curve]"
COc1ccc(C)cc1NC(=O)c1nn(C)c(C(=O)Nc2cc(C)ccc2OC)c1[N+](=O)[O-],,"inconclusive: 29.1 µM [rising, single point]"
CCOc1ccc(/C=N/Nc2nncc(-c3ccccc3)n2)cc1OC,,"inconclusive: 14.6 µM [cytotoxic, single point]"
COc1ccc(NC(=O)CSc2nnnn2C2CC2)cc1S(=O)(=O)N1CCOCC1,inactive: -1.74%,
CC(=O)c1ccc(Nc2cc(C)nc3ccccc23)cc1,,"inconclusive: 13 µM [cytotoxic, partial curve, poor fit]"
CC1(c2nnc(-c3ccccc3)o2)CC(c2ccc([N+](=O)[O-])cc2)=NO1 (stereo unspecified),,active: 20.6 µM
COc1ccc(-c2[nH]ncc2CN2CCCOc3c(cccc3OC)C2)c(OC)c1,inactive: 8.02%,
Oc1cccc(-c2nc3c4c(ncn3n2)-c2ccccc2CC42CCCC2)c1,,active: 7.31 µM
CN(c1ccc(C(=O)Nc2cccc([N+](=O)[O-])c2)cc1)S(C)(=O)=O,,"inconclusive: 20.6 µM [cytotoxic, single point]"
CCOc1ccc(C2C(=O)N(C3CCCCC3)CC(=O)N2CC2CCCO2)cc1OC (stereo unspecified),,active: 18.4 µM
O=C(NCCN1CCOCC1)c1cc(-c2ccc(Cl)cc2)on1,,active: 20.6 µM
Nc1nc(NCc2ccco2)nc(N2CCN(Cc3ccccc3)CC2)c1[N+](=O)[O-],inactive: -1.13%,
COc1ccc([C@H]2/C=C\CN(C(=O)[C@H](Cc3ccccc3)NC(=O)OCC3c4ccccc4-c4ccccc43)CC(=O)N2Cc2ccc(F)cc2)cc1,inactive: -8.12%,
CCN1CCN(CCNC(=O)CCCCCn2c(=O)[nH]c3cc(C(=O)OC)ccc3c2=O)CC1,inactive: -3.73%,
Cc1ccc(Cl)cc1NC(=S)N(Cc1ccccc1)Cc1cccnc1,,"inconclusive: 13 µM [cytotoxic, partial curve]"
COc1ccc(-c2nn(C)c(=O)c3ccccc23)cc1CNC(=O)c1ccco1,,"inconclusive: 20.6 µM [cytotoxic, single point]"
CCc1ccc(NC(=O)Nc2cccs2)cc1,inactive: 2.69%,
COc1ccc(OC)c(Nc2nc(NCc3ccco3)c3ccccc3n2)c1,,"inconclusive: 29.1 µM [cytotoxic, single point]"
CCOC(=O)CCNC(=O)N1CCCC(C(=O)c2cccc(OC(C)C)c2)C1 (stereo unspecified),,"inconclusive: 8.2 µM [cytotoxic, partial curve]"

# 4 compounds out of the list, sorted by SMILES length, high to low:
Compound,"activity change, negative = cytotoxicity",Potency
Nc1nc(NCc2ccco2)nc(N2CCN(Cc3ccccc3)CC2)c1[N+](=O)[O-],inactive: -1.13%,
COc1ccc(NC(=O)CSc2nnnn2C2CC2)cc1S(=O)(=O)N1CCOCC1,inactive: -1.74%,
COc1cccc(CN2CCN(c3cccc(C(F)(F)F)c3)CC2)c1OC,,active: 20.6 µM
O=C(Nc1ccccc1)c1ccc(S(=O)(=O)NCC2CCCO2)cc1 (stereo unspecified),,"inconclusive: 20.6 µM [cytotoxic, single point]"
